The results in this text go back to paper PMC12472322, “Structure–Activity Relationship Study of 3-Alkynyl-6-aryl-isothiazolo[4,3-b]pyridines as Dual Inhibitors of the Lipid Kinases PIKfyve and PIP4K2C” (Pharmaceuticals, 2025).

Holding throughout (assay): cell proliferation assay (MTS, 72 h)
For one experiment, the system named is LN-229. The conditions noted are these: Homo sapiens, LN-229, 72 h, read-out: CC50 LN-229.
The next experiment concerns DND-41. The conditions noted are these: DND41, 72 h, read-out: CC50 DND-41.
In a further experiment the test system is HCT-116. The conditions noted are these: Homo sapiens, HCT-116, 72 h, read-out: CC50 HCT-116.
A further experiment relates to HL-60. Particulars: Homo sapiens, HL-60, 72 h, read-out: CC50 HL-60.

As to `Nc1ccc(C(=O)Nc2cccc(-c3nc(N4CCOCC4)c4oc5ncccc5c4n3)c2)cn1` [YM-201636, reference compound], the CC50 in the experiment with LN-229 was determined as 0.16 ± 0.03 µM; in the experiment on DND-41, 0.38 ± 0.09 µM; with HCT-116, 1.08 ± 1.23 µM; with HL-60, 0.31 ± 0.11 µM.
